{"source": "PubChem BioAssay AID1259322 (Peter MacCallum Cancer Centre, 2017)", "test": "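Kinase knock-downs reducing the TRPV4 calcium plateau after PAR2 stimulation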 (follow-up of hits)", "cell system": "human HEK293 cells with stable inducible TRPV4", "reagent": "single siRNA against human genes", "challenge": "PAR2 activation; agonist identity, dose and timing not stated", "measured": "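Fura-2 imaging of cytosolic calcium over time, first peak marking PAR2 and later plateau marking TRPV4 opening; both relative to mock on each plate, mean of two plates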", "direction": "TRPV4 plateau calcium, % of mock: higher = stronger PAR2-dependent TRPV4 calcium entry; PAR2 peak calcium, % of mock: higher = stronger direct PAR2 calcium response", "active means": "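Scored active if TRPV4 plateau drops under 90% of mock while PAR2 peak is kept above 79% of mock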", "note": "The deposit covers 208 reagents; shown is an unselected part. Over the whole deposit, 72 (35%) got an active call. 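Four separate siRNAs per kinase gene, 52 genes in all; PAR2 agonist unnamed, with its dose and timing unknown.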 The numbers tell different reagents against one gene apart. Not given: the amount of reagent, the time to read-out."}
{"gene knocked down":"RIPK2 (receptor interacting serine/threonine kinase 2)","reagent":1,"TRPV4 plateau calcium, % of mock":80.5,"PAR2 peak calcium, % of mock":85.7,"activity call":"active"}
{"gene knocked down":"RIPK2 (receptor interacting serine/threonine kinase 2)","reagent":2,"TRPV4 plateau calcium, % of mock":73.2,"PAR2 peak calcium, % of mock":78.1,"activity call":"inactive"}
{"gene knocked down":"RIPK2 (receptor interacting serine/threonine kinase 2)","reagent":3,"TRPV4 plateau calcium, % of mock":94.3,"PAR2 peak calcium, % of mock":103,"activity call":"inactive"}
{"gene knocked down":"RIPK2 (receptor interacting serine/threonine kinase 2)","reagent":4,"TRPV4 plateau calcium, % of mock":96.4,"PAR2 peak calcium, % of mock":101,"activity call":"inactive"}
{"gene knocked down":"RIOK1 (RIO kinase 1)","reagent":1,"TRPV4 plateau calcium, % of mock":102,"PAR2 peak calcium, % of mock":96.3,"activity call":"inactive"}
{"gene knocked down":"RIOK1 (RIO kinase 1)","reagent":2,"TRPV4 plateau calcium, % of mock":94.6,"PAR2 peak calcium, % of mock":91.8,"activity call":"inactive"}
{"gene knocked down":"RIOK1 (RIO kinase 1)","reagent":3,"TRPV4 plateau calcium, % of mock":78.4,"PAR2 peak calcium, % of mock":84.4,"activity call":"active"}
{"gene knocked down":"RIOK1 (RIO kinase 1)","reagent":4,"TRPV4 plateau calcium, % of mock":84.7,"PAR2 peak calcium, % of mock":91.2,"activity call":"active"}
{"gene knocked down":"MLKL (mixed lineage kinase domain like pseudokinase)","reagent":1,"TRPV4 plateau calcium, % of mock":73.5,"PAR2 peak calcium, % of mock":92.4,"activity call":"active"}
{"gene knocked down":"MLKL (mixed lineage kinase domain like pseudokinase)","reagent":2,"TRPV4 plateau calcium, % of mock":73.9,"PAR2 peak calcium, % of mock":86.7,"activity call":"active"}
{"gene knocked down":"MLKL (mixed lineage kinase domain like pseudokinase)","reagent":3,"TRPV4 plateau calcium, % of mock":64.8,"PAR2 peak calcium, % of mock":73.4,"activity call":"inactive"}
{"gene knocked down":"MLKL (mixed lineage kinase domain like pseudokinase)","reagent":4,"TRPV4 plateau calcium, % of mock":92.3,"PAR2 peak calcium, % of mock":98,"activity call":"inactive"}
{"gene knocked down":"SIK3 (SIK family kinase 3)","reagent":1,"TRPV4 plateau calcium, % of mock":105,"PAR2 peak calcium, % of mock":106,"activity call":"inactive"}
{"gene knocked down":"SIK3 (SIK family kinase 3)","reagent":2,"TRPV4 plateau calcium, % of mock":90.1,"PAR2 peak calcium, % of mock":73.3,"activity call":"inactive"}
{"gene knocked down":"SIK3 (SIK family kinase 3)","reagent":3,"TRPV4 plateau calcium, % of mock":90.7,"PAR2 peak calcium, % of mock":107,"activity call":"inactive"}
{"gene knocked down":"SIK3 (SIK family kinase 3)","reagent":4,"TRPV4 plateau calcium, % of mock":79.1,"PAR2 peak calcium, % of mock":89.7,"activity call":"active"}
{"gene knocked down":"ACVRL1 (activin A receptor like type 1)","reagent":1,"TRPV4 plateau calcium, % of mock":77,"PAR2 peak calcium, % of mock":83.3,"activity call":"active"}
{"gene knocked down":"ACVRL1 (activin A receptor like type 1)","reagent":2,"TRPV4 plateau calcium, % of mock":81.3,"PAR2 peak calcium, % of mock":87.3,"activity call":"active"}
{"gene knocked down":"ACVRL1 (activin A receptor like type 1)","reagent":3,"TRPV4 plateau calcium, % of mock":75.1,"PAR2 peak calcium, % of mock":81.3,"activity call":"active"}
{"gene knocked down":"ACVRL1 (activin A receptor like type 1)","reagent":4,"TRPV4 plateau calcium, % of mock":96,"PAR2 peak calcium, % of mock":105,"activity call":"inactive"}
{"gene knocked down":"CAMKV (CaM kinase like vesicle associated)","reagent":1,"TRPV4 plateau calcium, % of mock":84.7,"PAR2 peak calcium, % of mock":94.4,"activity call":"active"}
{"gene knocked down":"CAMKV (CaM kinase like vesicle associated)","reagent":2,"TRPV4 plateau calcium, % of mock":99.6,"PAR2 peak calcium, % of mock":92,"activity call":"inactive"}
{"gene knocked down":"CAMKV (CaM kinase like vesicle associated)","reagent":3,"TRPV4 plateau calcium, % of mock":99.2,"PAR2 peak calcium, % of mock":105,"activity call":"inactive"}
{"gene knocked down":"CAMKV (CaM kinase like vesicle associated)","reagent":4,"TRPV4 plateau calcium, % of mock":83.2,"PAR2 peak calcium, % of mock":72.9,"activity call":"inactive"}
{"gene knocked down":"MAPK13 (mitogen-activated protein kinase 13)","reagent":1,"TRPV4 plateau calcium, % of mock":63.6,"PAR2 peak calcium, % of mock":83.1,"activity call":"active"}
{"gene knocked down":"MAPK13 (mitogen-activated protein kinase 13)","reagent":2,"TRPV4 plateau calcium, % of mock":87.9,"PAR2 peak calcium, % of mock":99.8,"activity call":"active"}
{"gene knocked down":"MAPK13 (mitogen-activated protein kinase 13)","reagent":3,"TRPV4 plateau calcium, % of mock":88.2,"PAR2 peak calcium, % of mock":104,"activity call":"active"}
{"gene knocked down":"MAPK13 (mitogen-activated protein kinase 13)","reagent":4,"TRPV4 plateau calcium, % of mock":92.4,"PAR2 peak calcium, % of mock":102,"activity call":"inactive"}

Taken from above:
RIOK1 (RIO kinase 1) #3, TRPV4 plateau calcium, % of mock → 78.4
RIPK2 (receptor interacting serine/threonine kinase 2) #4, activity call: inactive
Result of ACVRL1 (activin A receptor like type 1) #3 in “TRPV4 plateau calcium, % of mock”: 75.1

The results go on:
{"gene knocked down":"CMPK1 (cytidine/uridine monophosphate kinase 1)","reagent":1,"TRPV4 plateau calcium, % of mock":98.3,"PAR2 peak calcium, % of mock":95.3,"activity call":"inactive"}
{"gene knocked down":"CMPK1 (cytidine/uridine monophosphate kinase 1)","reagent":2,"TRPV4 plateau calcium, % of mock":71,"PAR2 peak calcium, % of mock":75.6,"activity call":"inactive"}
{"gene knocked down":"CMPK1 (cytidine/uridine monophosphate kinase 1)","reagent":3,"TRPV4 plateau calcium, % of mock":75.5,"PAR2 peak calcium, % of mock":76.1,"activity call":"inactive"}
{"gene knocked down":"CMPK1 (cytidine/uridine monophosphate kinase 1)","reagent":4,"TRPV4 plateau calcium, % of mock":75.7,"PAR2 peak calcium, % of mock":78.7,"activity call":"inactive"}
{"gene knocked down":"EFNB3 (ephrin B3)","reagent":1,"TRPV4 plateau calcium, % of mock":79.2,"PAR2 peak calcium, % of mock":84.7,"activity call":"active"}
{"gene knocked down":"EFNB3 (ephrin B3)","reagent":2,"TRPV4 plateau calcium, % of mock":73.4,"PAR2 peak calcium, % of mock":79.7,"activity call":"active"}
{"gene knocked down":"EFNB3 (ephrin B3)","reagent":3,"TRPV4 plateau calcium, % of mock":69.3,"PAR2 peak calcium, % of mock":65.6,"activity call":"inactive"}
{"gene knocked down":"EFNB3 (ephrin B3)","reagent":4,"TRPV4 plateau calcium, % of mock":63,"PAR2 peak calcium, % of mock":73,"activity call":"inactive"}
{"gene knocked down":"CHKA (choline kinase alpha)","reagent":1,"TRPV4 plateau calcium, % of mock":95.6,"PAR2 peak calcium, % of mock":101,"activity call":"inactive"}
{"gene knocked down":"CHKA (choline kinase alpha)","reagent":2,"TRPV4 plateau calcium, % of mock":69.1,"PAR2 peak calcium, % of mock":64.1,"activity call":"inactive"}
{"gene knocked down":"CHKA (choline kinase alpha)","reagent":3,"TRPV4 plateau calcium, % of mock":101,"PAR2 peak calcium, % of mock":104,"activity call":"inactive"}
{"gene knocked down":"CHKA (choline kinase alpha)","reagent":4,"TRPV4 plateau calcium, % of mock":91.6,"PAR2 peak calcium, % of mock":84.1,"activity call":"inactive"}
{"gene knocked down":"PLK4 (polo like kinase 4)","reagent":1,"TRPV4 plateau calcium, % of mock":98.7,"PAR2 peak calcium, % of mock":94.4,"activity call":"inactive"}
{"gene knocked down":"PLK4 (polo like kinase 4)","reagent":2,"TRPV4 plateau calcium, % of mock":121,"PAR2 peak calcium, % of mock":121,"activity call":"inactive"}
{"gene knocked down":"PLK4 (polo like kinase 4)","reagent":3,"TRPV4 plateau calcium, % of mock":106,"PAR2 peak calcium, % of mock":114,"activity call":"inactive"}
{"gene knocked down":"PLK4 (polo like kinase 4)","reagent":4,"TRPV4 plateau calcium, % of mock":83.6,"PAR2 peak calcium, % of mock":88.3,"activity call":"active"}
{"gene knocked down":"FLT4 (fms related receptor tyrosine kinase 4)","reagent":1,"TRPV4 plateau calcium, % of mock":100,"PAR2 peak calcium, % of mock":96.4,"activity call":"inactive"}
{"gene knocked down":"FLT4 (fms related receptor tyrosine kinase 4)","reagent":2,"TRPV4 plateau calcium, % of mock":83.5,"PAR2 peak calcium, % of mock":73.8,"activity call":"inactive"}
{"gene knocked down":"FLT4 (fms related receptor tyrosine kinase 4)","reagent":3,"TRPV4 plateau calcium, % of mock":99.2,"PAR2 peak calcium, % of mock":103,"activity call":"inactive"}
{"gene knocked down":"FLT4 (fms related receptor tyrosine kinase 4)","reagent":4,"TRPV4 plateau calcium, % of mock":71.3,"PAR2 peak calcium, % of mock":59.3,"activity call":"inactive"}
{"gene knocked down":"FASTK (Fas activated serine/threonine kinase)","reagent":1,"TRPV4 plateau calcium, % of mock":96.2,"PAR2 peak calcium, % of mock":102,"activity call":"inactive"}
{"gene knocked down":"FASTK (Fas activated serine/threonine kinase)","reagent":2,"TRPV4 plateau calcium, % of mock":87.1,"PAR2 peak calcium, % of mock":88.8,"activity call":"active"}
{"gene knocked down":"FASTK (Fas activated serine/threonine kinase)","reagent":3,"TRPV4 plateau calcium, % of mock":80,"PAR2 peak calcium, % of mock":90.8,"activity call":"active"}
{"gene knocked down":"FASTK (Fas activated serine/threonine kinase)","reagent":4,"TRPV4 plateau calcium, % of mock":98.5,"PAR2 peak calcium, % of mock":101,"activity call":"inactive"}
